Measurements: PubChem BioAssay AID504834 (National Center for Advancing Translational Sciences (NCATS), 2011)
Out of some 320,000 compounds screened, about 22,000 (6.9%) were called active. Inconclusive means that the source gave no clear call. Such entries were picked first, then a sample of the others. Calls come from the whole dose curve; as a rule, active = well fitted inhibition curve with a large enough effect; inconclusive = small, poorly fitted or top-dose-only effect, or another doubt; inactive = no such curve, though single readings can be large or run the other way. Potencies beside an inconclusive call are fits to weak or partial responses and may not hold up.

test: Primary qHTS for delayed death inhibitors of the malarial parasite plastid, 96 hour incubation; conditions: P. falciparum luciferase reporter growth; series mostly up to 28.7 µM
In short: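 Plates of compound plus infected erythrocytes (2% hematocrit, 0.05% parasitemia final) incubate 96 hours, 37 C, 5% CO2. Detection reagent added; reduced luminescence from the parasites' luciferase reporter flags inhibition.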
Potency is the fitted concentration of half-maximal effect.

| SMILES | Potency |
| --- | --- |
| O=C(O)C1C2CCC(C2)C1C(=O)NCc1ccccn1 (stereo not given) | inconclusive: 8.28 µM [inhibitor, partial curve, poor fit] |
| CCCN(CC(=O)Nc1ccccc1OC)C(=O)c1ccc(S(=O)(=O)NCc2ccco2)cc1 | inconclusive: 10.4 µM [inhibitor, single point] |
| CCc1cccc(CC)c1NC(=S)Nc1ccccc1 | inactive |
| COc1cc(Cl)c(C)cc1NC(=O)CSc1nnc(-c2cccnc2)n1Cc1ccco1 | inconclusive: 4.15 µM [inhibitor, partial curve] |
| Cc1cc(C(=O)Nc2nc3ccc(S(C)(=O)=O)cc3s2)c(C)o1 | inactive |
| CN(Cc1cn(C)nc1-c1cccc(Cl)c1)C1CCOCC1 | inactive |
| Cc1nc(-c2cccc(NS(=O)(=O)c3ccc4ccccc4c3)c2)cs1 | inconclusive: 0.0041 µM [inhibitor, full curve, poor fit] |
| CSc1cccc(NC(=O)C2CCN(S(=O)(=O)c3ccc4c(c3)NC(=O)CO4)CC2)c1 | inconclusive: 18.5 µM [inhibitor, single point] |
| CC(=O)N1CCc2cc(S(=O)(=O)CCC(=O)NCCc3ccc(Cl)cc3)ccc21 | inactive |
| COc1ccc(C2Nc3ccccc3C(=O)N2C2CCCCC2)cc1 (stereo not given) | inconclusive: 18.5 µM [inhibitor, single point] |
| COc1ccccc1OCC#CCN1CCOCC1 | inconclusive: 18.5 µM [inhibitor, single point] |
| CCOC(=O)CNC(=O)c1sc(NC(=O)c2ccccc2)nc1C | inconclusive: 13.1 µM [inhibitor, single point] |
| O=C(NCC(O)c1ccc([N+](=O)[O-])cc1)c1cccc(S(=O)(=O)N2CCOCC2)c1 (stereo not given) | inconclusive: 8.28 µM [inhibitor, partial curve] |
| COc1cc(/C=C2\C(=N)N3N=CSC3=NC2=O)ccc1OS(=O)(=O)c1ccccc1[N+](=O)[O-] | active: 4.15 µM |
| O=C(CCC1CCCC1)Nc1cc(Cl)ccc1N1CCOCC1 | active: 8.28 µM |
| CC(C)C(c1nnnn1Cc1ccco1)N1CCC(C(N)=O)CC1 (stereo not given) | inconclusive: 10.4 µM [inhibitor, single point] |
| COc1ccc(-n2c(COc3ccccc3)nnc2SCc2ccc(C#N)cc2)cc1 | inconclusive: 9.28 µM [inhibitor, partial curve] |
| NC(N)=Nc1ccc(N=C(N)N)cc1 | active: 8.28 µM |
| CCCC[C@@H](CNC)NC[C@H](NCCCCC1CCCCC1)C(C)C | active: 1.65 µM |
| O=C(O)c1ccc(CS(=O)(=O)c2ccc(Br)cc2)cc1 | inconclusive: 18.5 µM [inhibitor, single point] |
| C=CCn1c(=NC(=O)C2COc3ccccc3O2)sc2cc(S(N)(=O)=O)ccc21 (stereo not given) | inconclusive: 9.28 µM [inhibitor, partial curve, poor fit] |
| Cc1c(CC(=O)NCCC(=O)O)c(=O)oc2cc3oc4c(c3cc12)CCCC4 | inactive |
| COc1cccc(/C=N/NC(=O)CSCC(=O)Nc2ccccc2)c1O | inconclusive: 13.1 µM [inhibitor, single point] |
| O=C(CSc1nnc(SCc2ccc(Cl)cc2)s1)N1CCOCC1 | inconclusive: 0.294 µM [inhibitor, partial curve, poor fit] |

| SMILES | Potency |
| --- | --- |
| NC(=O)CC(NC(=O)c1ccccc1)c1ccc(NCCc2ccc(F)cc2)c([N+](=O)[O-])c1 (stereo not given) | inconclusive: 9.28 µM [inhibitor, partial curve, poor fit] |
| Cc1ccc2nc(SCc3cccc([N+](=O)[O-])c3)nc(C)c2c1 | inactive |
| O=C(O)Cn1cnc2scc(-c3cccs3)c2c1=O | inconclusive: 1.85 µM [inhibitor, partial curve, poor fit] |
| CCOc1ccc(C2=C(C=Nc3c(C)n(C)n(-c4ccccc4)c3=O)C(c3ccc(F)cc3)c3ccccc3O2)cc1 (stereo not given) | active: 0.294 µM |
| Cc1cc(C)n(-c2nc(NCCC(C)C)c3c4c(sc3n2)COC(C)(C)C4)n1 | active: 3.7 µM |
| Cc1ccc(-c2csc(NC(=O)CN3CC(C)OC(C)C3)n2)cc1 (stereo not given) | inconclusive: 18.5 µM [inhibitor, single point] |
| COc1cccc(-c2nc(CS(=O)(=O)CC(=O)NCCCN3CC(C)CC(C)C3)c(C)o2)c1 (stereo not given) | inconclusive: 7.38 µM [inhibitor, partial curve] |
| CC(C)c1ccc(C(=O)CSc2ncn[nH]2)cc1 | inactive |
| Cc1ccc2oc(=O)c3cnn(CC(=O)N(CCCN4CCOCC4)Cc4ccco4)c3c2c1 | inconclusive: 18.5 µM [inhibitor, single point] |
| CCn1cc(C(=O)N2CCC3(CC2)OCCO3)c(=O)c2cc(S(=O)(=O)N3CCCC3)ccc21 | inconclusive: 16.5 µM [inhibitor, single point] |
| CCOC(=O)C1(Cc2ccc(OC)cc2)CCN(C(=O)c2ccoc2C)CC1 | inactive |
| CC1(C)C(=O)Nc2ccccc2N1C(=O)COC(=O)Cc1c(F)cccc1Cl | inconclusive: 16.5 µM [inhibitor, single point] |
| O=C(CN1C(=O)c2ccccc2S1(=O)=O)c1ccc(F)c(F)c1 | inactive |
| Cc1csc(SCC(=O)NCc2ccccc2Cl)n1 | inconclusive: 18.5 µM [inhibitor, single point] |
| Cc1ccc(S(=O)(=O)C2(C(=O)Nc3ccc(F)cc3)CC2)cc1 | inconclusive: 11.7 µM [inhibitor, single point] |
| COc1ccc(C2C3=C(CC(c4ccco4)CC3=O)Nc3ccccc3N2C(C)=O)cc1 (stereo not given) | inactive |
| CCC(C(=O)NC1CCCCCC1)n1nc(C)c2c(C)n(-c3ccccc3)nc2c1=O (stereo not given) | active: 10.4 µM |
| COc1ccc(C(O)C(CN2CCOCC2)c2ccccc2)cc1 (stereo not given) | active: 9.28 µM |
| COc1ccc(-c2nc(-c3ccccn3)nc(N3CCN(C)CC3)c2C#N)cc1 | inconclusive: 18.5 µM [inhibitor, single point] |
| COc1ccc(-c2nc(CS(=O)CC(=O)NCc3ccc(Cl)cc3)c(C)o2)cc1OC (stereo not given) | inconclusive: 11.7 µM [inhibitor, single point] |
| CN(CC(=O)Nc1c(Cl)cccc1Cl)C(=O)c1ccc2ccccc2n1 | inactive |
| Cc1ccc(C)c(Cn2c(CN(C)Cc3ccccc3)nc3c2c(=O)n(C)c(=O)n3C)c1 | active: 13.1 µM |
| O=C(C[n+]1ccccc1)Nc1ccccc1C(=O)O | inactive |
| O=C(Nc1ccccc1C(=O)N1CCOCC1)c1cc2ccccc2o1 | inactive |

| SMILES | Potency |
| --- | --- |
| CCOc1ccc(CNC(=O)C2CCN(c3nnc(C)c4c(C)n(-c5ccc(C)cc5)nc34)CC2)cc1 | inconclusive: 1.31 µM [inhibitor, full curve] |
| CCOC(=O)CSC1=C(C#N)C(c2ccccc2)C(C(C)=O)=C(C)N1 (stereo not given) | inactive |
| CC(C)n1c(=S)[nH]c2ccccc21 | inconclusive: 18.5 µM [inhibitor, single point] |
| CC(C)C(=O)N=C1SC2CS(=O)(=O)CC2N1Cc1ccccc1 (stereo not given) | inactive |
| CC(=O)Nc1ccc(NCc2ccc(C)s2)cc1 | inconclusive: 18.5 µM [inhibitor, single point] |
| On1nnc2ccc(C(F)(F)F)cc21 | inconclusive: 2.62 µM [inhibitor, full curve, poor fit] |
| O=C(NCCc1ccccc1)C1CCCN(c2nc3ccccc3s2)C1 (stereo not given) | inactive |
| COC(=O)c1cccc(NC(=S)Nc2ccc(Cl)c(Cl)c2)c1 | inactive |
| COc1ccc(NC(=O)CNC(=O)Cn2cnc3sc4c(c3c2=O)CCCC4)cc1OC | inconclusive: 13.1 µM [inhibitor, partial curve, poor fit] |
| COc1ccc(CC(=O)OCC(=O)Nc2ccc3c(c2)OCO3)cc1OC | inconclusive: 18.5 µM [inhibitor, single point] |
| Cc1ccc(S(=O)(=O)Nc2cc(S(=O)(=O)N3CCCCC3)ccc2N2CCOCC2)cc1 | inconclusive: 1.04 µM [inhibitor, full curve, poor fit] |
| Cc1cc(Oc2ccc(-c3nnc(-c4ccccc4)o3)cc2[N+](=O)[O-])ccc1Cl | inconclusive: 13.1 µM [inhibitor, single point] |
| Cc1ccc(S(=O)(=O)c2nc(S(C)(=O)=O)sc2N2CC(C)OC(C)C2)cc1 (stereo not given) | inactive |
| O=C1CSC(=S)N1/N=C/c1ccc(Cl)c([N+](=O)[O-])c1 | inconclusive: 0.329 µM [inhibitor, partial curve, poor fit] |
| Cc1ccc(NC2OC(C(O)CO)C(O)C2O)cc1[N+](=O)[O-] (stereo not given) | inconclusive: 3.7 µM [inhibitor, partial curve] |
| COc1ccc(NC(=O)N[C@@H](Cc2ccccc2)C(=O)NN)cc1 | inconclusive: 11.7 µM [inhibitor, single point] |
| N/C(=N\[N+](=O)[O-])N1CCN(C(=O)c2ccccn2)CC1 | inconclusive: 9.28 µM [inhibitor, partial curve, poor fit] |
| Cc1ccccc1NC(=O)CCc1c(C)nn(-c2ccc(N3CCOCC3)nn2)c1C | inconclusive: 18.5 µM [inhibitor, single point] |
| CCCCn1c(NC(=O)c2ccco2)c(C(=O)OCC)c2nc3ccccc3nc21 | inconclusive: 4.65 µM [inhibitor, partial curve] |
| COc1cccc(S(=O)(=O)Nc2cccc(C(=O)N3CCCCCC3)c2)c1 | inactive |
| Cc1ccc(C)c(CN2CCNC2=O)c1 | inconclusive: 16.5 µM [inhibitor, partial curve, poor fit] |
| O=C(NC(Cc1ccccc1)C(=O)O)c1ccccc1 (stereo not given) | inconclusive: 18.5 µM [inhibitor, single point] |

A section taken from the entries so far:

| SMILES | Potency |
| --- | --- |
| CCOC(=O)CSC1=C(C#N)C(c2ccccc2)C(C(C)=O)=C(C)N1 (stereo not given) | inactive |
| CC(C)n1c(=S)[nH]c2ccccc21 | inconclusive: 18.5 µM [inhibitor, single point] |
| CC(C)C(=O)N=C1SC2CS(=O)(=O)CC2N1Cc1ccccc1 (stereo not given) | inactive |
| CC(=O)Nc1ccc(NCc2ccc(C)s2)cc1 | inconclusive: 18.5 µM [inhibitor, single point] |
| On1nnc2ccc(C(F)(F)F)cc21 | inconclusive: 2.62 µM [inhibitor, full curve, poor fit] |
| O=C(NCCc1ccccc1)C1CCCN(c2nc3ccccc3s2)C1 (stereo not given) | inactive |
| COC(=O)c1cccc(NC(=S)Nc2ccc(Cl)c(Cl)c2)c1 | inactive |
| COc1ccc(NC(=O)CNC(=O)Cn2cnc3sc4c(c3c2=O)CCCC4)cc1OC | inconclusive: 13.1 µM [inhibitor, partial curve, poor fit] |
| COc1ccc(CC(=O)OCC(=O)Nc2ccc3c(c2)OCO3)cc1OC | inconclusive: 18.5 µM [inhibitor, single point] |
| Cc1ccc(S(=O)(=O)Nc2cc(S(=O)(=O)N3CCCCC3)ccc2N2CCOCC2)cc1 | inconclusive: 1.04 µM [inhibitor, full curve, poor fit] |
| Cc1cc(Oc2ccc(-c3nnc(-c4ccccc4)o3)cc2[N+](=O)[O-])ccc1Cl | inconclusive: 13.1 µM [inhibitor, single point] |
| Cc1ccc(S(=O)(=O)c2nc(S(C)(=O)=O)sc2N2CC(C)OC(C)C2)cc1 (stereo not given) | inactive |
| O=C1CSC(=S)N1/N=C/c1ccc(Cl)c([N+](=O)[O-])c1 | inconclusive: 0.329 µM [inhibitor, partial curve, poor fit] |
| Cc1ccc(NC2OC(C(O)CO)C(O)C2O)cc1[N+](=O)[O-] (stereo not given) | inconclusive: 3.7 µM [inhibitor, partial curve] |
| COc1ccc(NC(=O)N[C@@H](Cc2ccccc2)C(=O)NN)cc1 | inconclusive: 11.7 µM [inhibitor, single point] |
| N/C(=N\[N+](=O)[O-])N1CCN(C(=O)c2ccccn2)CC1 | inconclusive: 9.28 µM [inhibitor, partial curve, poor fit] |
